Experimental data published in US20240366649A1, “4-ETHYNYL-3-HYDROXY-TETRAHYDROFURANYL-ADENINE PHOSPHORAMIDATES AND RELATED COMPOUNDS AND THEIR USE IN TREATING MEDICAL CONDITIONS” (ROME THERAPEUTICS, INC., priority 2021, published 2024).
At least one compound was matched to its structure with a doubt left.

Test system: interferon-stimulated gene (ISG) expression
Assay: In vivo decitabine challenge model
Set-up: species or system C57BL/6 mice
Details: mice; decitabine i.p. 5 mg/kg and islatravir p.o. 0.6-6.0 mg/kg once a day Day 0 to Day 4; IFIT2 v. GAPDH
Procedure: Twenty 9-11 week old C57BL/6 mice were acclimated to the lab for at least 5 days. Islatravir (4′-ethynyl-2-fluoro-2′-deoxyadenosine) was prepared in a 0.5% methylcellulose solution for p.o. administration. Decitabine (Sigma) was dissolved in sterile PBS (pH 7.4) and dosed within 30 minutes of preparation of the solution. Doses of both islatravir and decitabine were administered once a day, every day from Day 0 to Day 4.
On Day 0, mice were split into four groups of five mice and given their first dose of decitabine (i.p., 5 mg/kg) and […]. Dosing groups were:
Decitabine and islatravir were administered daily from Day 0 to Day 4. All mice were euthanized 1 hour after the last dose administration on Day 4. Spleens, liver, and terminal colon were collected, along with plasma from each animal. The fold changes in interferon-stimulated gene (ISG) expression was calculated by first normalizing to GAPDH gene using the Delta CT method. The CT (gene of interest)−CT (reference gene) was calculated to generate a delta CT for all samples. The fold change was then calculated by taking the […](Delta CT(control)−Delta CT (experimental). The control in this example was the PBS control animal group. The Taqman duplex assay (Thermo Fisher 4331182 and 4448489) was used according to the manufacturer's instructions to determine levels of GAPDH v. IFIT2.

Nc1ncn([C@H]2C[C@H](O)[C@@H](CO)O2)c(=O)n1 [decitabine]
interferon-stimulated gene (ISG) response: induced interferon-stimulated gene (ISG) response in the spleen
